These are yes or no findings as the source states them, for the method shown. Sequences can lack the tags named with a protein.
B1: CelDnc, truncated construct of the endoglucanase CelD from Clostridium thermocellum (domain or fragment, UniProt A3DDN1 32-577)
chain: SGLIETKVSAAKITENYQFDSRIRLNSIGFIPNHSKKATIAANCSTFYVVKEDGTIVYTGTATSMFDNDTKETVYIADFSSVNEEGTYYLAVPGVGKSVNFKIAMNVYEDAFKTAMLGMYLLRCGTSVSATYNGIHYSHGPCHTNDAYLDYINGQHTKKDSTKGWHDAGDYNKYVVNAGITVGSMFLAWEHFKDQLEPVALEIPEKNNSIPDFLDELKYEIDWILTMQYPDGSGRVAHKVSTRNFGGFIMPENEHDERFFVPWSSAATADFVAMTAMAARIFRPYDPQYAEKCINAAKVSYEFLKNNPANVFANQSGFSTGEYATVSDADDRLWAAAEMWETLGDEEYLRDFENRAAQFSKKIEADFDWDNVANLGMFTYLLSERPGKNPALVQSIKDSLLSTADSIVRTSQNHGYGRTLGTTYYWGCNGTVVRQTMILQVANKISPNNDYVNAALDAISHVFGRNYYNRSYVTGLGINPPMNPHDRRSGADGIWEPWPGYLVGGGWPGPKDWVDIQDSYQTNEIAINWNAALIYALAGFVNYNSA
B2: CelDwt, endoglucanase CelD from Clostridium thermocellum (enzyme, UniProt A3DDN1 42-649)
chain: AKITENYQFDSRIRLNSIGFIPNHSKKATIAANCSTFYVVKEDGTIVYTGTATSMFDNDTKETVYIADFSSVNEEGTYYLAVPGVGKSVNFKIAMNVYEDAFKTAMLGMYLLRCGTSVSATYNGIHYSHGPCHTNDAYLDYINGQHTKKDSTKGWHDAGDYNKYVVNAGITVGSMFLAWEHFKDQLEPVALEIPEKNNSIPDFLDELKYEIDWILTMQYPDGSGRVAHKVSTRNFGGFIMPENEHDERFFVPWSSAATADFVAMTAMAARIFRPYDPQYAEKCINAAKVSYEFLKNNPANVFANQSGFSTGEYATVSDADDRLWAAAEMWETLGDEEYLRDFENRAAQFSKKIEADFDWDNVANLGMFTYLLSERPGKNPALVQSIKDSLLSTADSIVRTSQNHGYGRTLGTTYYWGCNGTVVRQTMILQVANKISPNNDYVNAALDAISHVFGRNYYNRSYVTGLGINPPMNPHDRRSGADGIWEPWPGYLVGGGWPGPKDWVDIQDSYQTNEIAINWNAALIYALAGFVNYNSAQNEVLYGDVNDDGKVNSTDLTLLKRYVLKAVSTLPSSKAEKNADVNRDGRVNSSDVTILSRYLIRVIEKLPI

Key:
[1] = target: CelDnc, truncated construct of the endoglucanase CelD from Clostridium thermocellum (Clostridium thermocellum) (UniProt A3DDN1); assay: SEC; Superdex 200 16/60, buffer 40 mM Tris pH 7.7, after TEV cleavage and second IMAC; both purified
[2] = target: CelDwt, endoglucanase CelD from Clostridium thermocellum (Clostridium thermocellum) (UniProt A3DDN1); assay: as above

| binding [1] | binding [2] | Binder |
| --- | --- | --- |
| no binding |  | B1 |
|  | no binding | B2 |
